This is an account of results in article PMC6382882.

This experiment deals with apo mH0ACPa, N-terminally extended A1-type ACP domain from module 5 of MLSA1 (Mycobacterium ulcerans) (UniProt Q6MZA4). The experiment can be described thus: 15N NMR nuclear spin relaxation (rotational correlation time); 15N-labelled apo mH0ACPa in phosphate buffer, 298 K, Bruker DRX500; overall rotational correlation time 8.4 ns; both purified.

Results are given in words; binding and its absence hold for the method and conditions named.

Regarding “apo mH0ACPa, N-terminally extended A1-type ACP domain from module 5 of MLSA1 (from UniProt Q6MZA4 11087-11185) (domain or fragment)”, the binding result was “no binding (tested: 200–800 μM)”.
